Data on 2 compounds can be found in PubChem BioAssay AID252 (DTP/NCI, 2004).

This assay has as its system BDF1 mice, intracerebral L1210 leukemia, survival T/C. Nature of the assay: NCI In Vivo Anticancer Drug Screen. Data for tumor model L1210 Leukemia (intracerebral) in B6D2F1 (BDF1) mice. The settings on record: higher T/C = longer survival. Here is the method: The antitumor activity of compounds was measured in mice bearing transplantable tumors. Survival or tumor size were measured and the results are expressed as the measurement made in the treated group (T) divided by the measurement made in the vehicle treated control group (C). The tumor model used in this assay is L1210 Leukemia (intracerebral) in B6D2F1 (BDF1) mice

The list shows only some results of the screen, not a fair sample: its compounds were picked by chemical class. Other doses and runs of a compound may be missing. T/C: endpoint of the treated group in % of that of the vehicle group. Some doses have a count of surviving animals in place of a T/C: the source holds a T/C of zero for them, seemingly a mark for toxic or unscored doses. Some doses without a T/C left all or most animals alive at the check, yet need not have been tolerated: survival well below the control is almost never listed, so the zero probably covers shortened survival too. Survivors were counted at the toxicity check, usually on the fifth day, unless a day is given; later deaths do not show. Schedule codes are those of the source, taken here to give the interval after Q, in days (D) or hours (H), and the number of doses after X. Where survival is the endpoint, this PubChem deposit counts one and a half times the control or more as active, and values a quarter to a half above the control carry no call in these data; other NCI protocols may use other cut-offs. Some entries hold several experiments; the values are given in rising order. Some T/C values carry the count of animals alive at the toxicity check (mostly the fifth day); where neither a count nor a note follows, no animal had died by that day.

Consider `NC(=O)c1[nH]cnc1/N=N\N(CCCl)CCCl`, for which the T/C is 108 % of control (T/C endpoint: mean survival time, dose: 125.0 mg/kg/injection, schedule: Q01DX001 (ip), vehicle: carboxymethylcellulose (CMC)); 115 % of control (T/C endpoint: mean survival time, dose: 250.0 mg/kg/injection, schedule: Q01DX001 (ip), vehicle: carboxymethylcellulose (CMC)); 102 and 122 % of control (T/C endpoint: mean survival time, dose: 500.0 mg/kg/injection, schedule: Q01DX001 (ip), vehicle: carboxymethylcellulose (CMC)); 115 % of control (T/C endpoint: mean survival time, dose: 750.0 mg/kg/injection, schedule: Q01DX001 (ip), vehicle: carboxymethylcellulose (CMC)); 98 % of control (T/C endpoint: median survival time, dose: 10.0 mg/kg/injection, schedule: Q01DX009 (ip), vehicle: other); 120 % of control (T/C endpoint: median survival time, dose: 20.0 mg/kg/injection, schedule: Q01DX009 (ip), vehicle: other). Besides, the T/C is 118 % of control (T/C endpoint: median survival time, dose: 40.0 mg/kg/injection, schedule: Q01DX009 (ip), vehicle: other); 105 % of control [9 of 10 alive] (T/C endpoint: median survival time, dose: 80.0 mg/kg/injection, schedule: Q01DX009 (ip), vehicle: other); 109 % of control (T/C endpoint: median survival time, dose: 160.0 mg/kg/injection, schedule: Q01DX009 (ip), vehicle: other). For the same compound, the survivor count (T/C endpoint: mean survival time, dose: 1000.0 mg/kg/injection, schedule: Q01DX001 (ip), vehicle: carboxymethylcellulose (CMC)) is given as 10 of 10; the survivor count (T/C endpoint: mean survival time, dose: 1500.0 mg/kg/injection, schedule: Q01DX001 (ip), vehicle: carboxymethylcellulose (CMC)) is listed as 6 of 10; the survivor count (T/C endpoint: median survival time, dose: 320.0 mg/kg/injection, schedule: Q01DX009 (ip), vehicle: other) is on record as 10 of 10; the survivor count (T/C endpoint: median survival time, dose: 640.0 mg/kg/injection, schedule: Q01DX009 (ip), vehicle: other) was 8 of 10.

`OC(CNCCCl)C(O)C(O)C(O)CNCCCl` (stereo unspecified): the T/C was 103 % of control (T/C endpoint: mean survival time, dose: 7.5 mg/kg/injection, schedule: Q01DX015 (ip), vehicle: saline); 110 % of control (T/C endpoint: mean survival time, dose: 11.0 mg/kg/injection, schedule: Q01DX015 (ip), vehicle: saline); 110 % of control (T/C endpoint: mean survival time, dose: 17.0 mg/kg/injection, schedule: Q01DX015 (ip), vehicle: saline).
